# Data taken from PubChem BioAssay AID2685 (National Center for Advancing Translational Sciences (NCATS), 2010).
# This is one part of the list. Shown are side measurements of this screen, not its main read-out; they come without a call. The list favours compounds with an active or inconclusive main result. Words in brackets tell the shape of the fitted curve; partial curves, single points and poor fits give uncertain potencies.
# Assay: qHTS Assay for Lipid Storage Modulators in Drosophila S3 Cells;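 for cell number change: cells counted by Cell Tracker Red CMTPX staining in the red channel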
# Conditions: BODIPY lipid droplet fluorescence, 18-24 h; for cell number change: measured here: cell count max response, cells fed with added oleic acid
# Outline: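 Laser-scanning cytometry quantifies lipid droplet accumulation (500–530 nm total intensity; droplet/cell object ratio) in oleic acid-fed (400 uM added) Drosophila S3 cells treated with a concentration series. 20 uM Triacsin C defined 100% inhibition.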
# [1] = measured here: lipid fluorescence (Fed channel) AC50, cells fed with added oleic acid
# [2] = measured here: cell number channel AC50, cells fed with added oleic acid
SMILES,cell number change [%],AC50 [1],AC50 [2]
Cc1cccc(C(=O)N2CCN(S(=O)(=O)N3CCCCCC3)CC2)c1,2.86,"29.1 µM [rising, single point]",–
COc1ccc(C2NCCc3c2[nH]c2ccccc32)cc1CN1CCc2cc(OC)c(OC)cc2C1C (centres undefined),19.7,"13 µM [rising, partial curve, poor fit]",–
O=C(O)C1CCN(Cc2ccccn2)CC1,-35.9,"2.31 µM [rising, partial curve]","20.6 µM [falling, single point]"
COc1ccccc1C(=O)NCCC(=O)Nc1ccc(C)cn1,–,"8.2 µM [falling, partial curve]",–
CCc1onc(C)c1C(=O)Nc1ccc2c(c1)OCO2,4.05,"0.461 µM [falling, full curve, poor fit]",–
O=C1c2cccc3cccc(c23)C(=O)N1CCN1CCN(C(=S)Nc2ccc(F)cc2)CC1,–,"2.06 µM [rising, partial curve]","2.91 µM [rising, single point]"
O=C(NCc1ccccn1)c1cc(-c2ccc(Cl)cc2)nc2ccccc12,0.853,"2.06 µM [rising, full curve]",–
CNC(=O)CSc1nc2[nH]ncc2c(=O)[nH]1,–,"0.291 µM [falling, partial curve, poor fit]",–
Cc1nnc(OC(C)C)c2nn(-c3ccccc3F)c(C)c12,44.4,–,–
CCCCCCSc1ccc([C@H]2N[C@@](Cc3ccccc3)(C(=O)OC)[C@H]3C(=O)N(C)C(=O)[C@@H]23)cc1OC,29.1,"14.6 µM [rising, partial curve]",–
COc1cc(C=C(c2nc3ccccc3s2)c2nc3ccccc3s2)ccc1O,-94.1,"25.9 µM [falling, single point]","16.4 µM [falling, single point]"
O=C1CCC/C(=N\NC(=O)c2ccc(COc3ccccc3-c3ccccc3)cc2)C1,4.88,"0.13 µM [falling, full curve, poor fit]",–
Cn1nc(-c2ccccc2)c(C(=O)Nc2ccc(C(F)(F)F)cc2)c1Cl,18.8,"8.2 µM [rising, partial curve, poor fit]",–
CC(C)(C)c1nc(SCC(=O)NNC(=O)c2ccccc2)c2ccccc2n1,5.83,"2.06 µM [falling, partial curve]",–
Cc1ccc(N(C)S(=O)(=O)c2cccc(C(=O)Nc3ccc(C)cn3)c2)cc1,-12.8,"29.1 µM [falling, single point]",–
CCC(=O)Oc1c(S(=O)(=O)c2ccc(C)cc2)c(C)nn1C(C)(C)C,-5.57,–,–
Cn1nnc(NCc2cc(Br)ccc2OCc2cccs2)n1,-2.97,–,–
CN1CCN(c2nc(-c3ccccc3)nc(-c3ccccc3)c2C#N)CC1,5.54,"4.61 µM [falling, partial curve]",–
O=C(CN1CCN(S(=O)(=O)c2ccc(F)cc2)CC1)Nc1cc(C(F)(F)F)ccc1Cl,-11.3,–,–
CN(C)S(=O)(=O)c1cc(NC(=O)CN2CCNC(=O)C2)ccc1Cl,-5.34,–,–
CC1(C)CC(NC(=O)Cc2ccc(Cl)cc2)CC(C)(C)N1,5.82,–,–
Cc1c(C(=O)N2CCCCC2)c(S(=O)(=O)Nc2ccc(F)cc2F)c(C)n1C,-10.5,–,–

# Taken from the results shown for reference:
SMILES,cell number change [%],AC50 [1],AC50 [2]
O=C(CN1CCN(S(=O)(=O)c2ccc(F)cc2)CC1)Nc1cc(C(F)(F)F)ccc1Cl,-11.3,–,–
CN(C)S(=O)(=O)c1cc(NC(=O)CN2CCNC(=O)C2)ccc1Cl,-5.34,–,–

# Additional compounds follow:

SMILES,cell number change [%],AC50 [1],AC50 [2]
Cc1cc(C(=O)CSc2nc(N)cc(=O)[nH]2)c(C)n1CCc1ccc(F)cc1,-26.1,"29.1 µM [falling, single point]",–
CCOc1ccc(NC(=O)C2CCN(S(=O)(=O)c3ccc4c(c3)NC(=O)C(C)S4)CC2)cc1 (centres undefined),–,"1.3 µM [falling, full curve]",–
O=c1cn[nH]c2ccccc12,-7.36,"0.13 µM [falling, full curve, poor fit]",–
CC(C)(C)NC(=O)CSc1nc2scc(-c3ccccc3)c2c(=O)[nH]1,29.8,"2.59 µM [falling, single point]",–
Cc1ccccc1OCC(O)CN(Cc1ccccc1O)C1CCCCC1 (centres undefined),-7.38,–,–
OC(CN1CCN(c2ccccc2)CC1)Cn1c2ccccc2c2ccccc21 (centres undefined),-27.4,"18.4 µM [falling, single point]",–
COc1cc(/C=C/c2cc[n+](C)cc2)ccc1OCC(=O)Nc1ccccc1,26.9,"29.1 µM [rising, single point]",–
CSC1=NCCN1C(=O)Cc1ccc(Cl)cc1,21,–,–
Cc1ccc(NC(=S)Nn2cnnc2)cc1,-33.1,"0.58 µM [falling, full curve]","0.731 µM [falling, full curve]"
CC(=O)C1=C(C)Nc2ncnn2C1c1ccccc1 (centres undefined),7.67,–,–
Cc1cc(OCC(=O)Nc2ccncc2)ccc1Br,-15.8,"25.9 µM [falling, single point]",–
Cc1ccc(C(=O)NNC(=O)Cn2ccc(C(F)(F)F)n2)o1,-48.8,"29.1 µM [falling, single point]","18.4 µM [falling, single point]"
COc1cc(C(=O)N2CCN(C(=O)c3cccc4ccccc34)CC2)cc(OC)c1OC,6.41,"0.103 µM [rising, partial curve, poor fit]",–
CCNC(=O)n1cc(-n2cncn2)c(-c2ccc(Cl)cc2)n1,-15.8,–,–
CC1(C)C(=O)OC(c2ccco2)C(C)(C)C1=O (centres undefined),-41.5,"3.66 µM [falling, full curve]","2.31 µM [falling, partial curve, poor fit]"
CC(=O)c1ccc(N2CCN(CC(=O)N(C3CC3)C3CCS(=O)(=O)C3)CC2)c(F)c1 (centres undefined),20.8,"16.4 µM [rising, single point]",–
COc1ccc(-n2c(=S)[nH]c3cc(C(=O)NCCCN4CCCC4=O)ccc3c2=O)cc1OC,9.98,–,–
O=C(CCN1CCN(c2ccccc2F)CC1)Nc1ccc(F)cc1,14.2,"29.1 µM [rising, single point]",–
COc1cccc(CN2CC(O)=C(c3nc(-c4ccc(Cl)cc4)cs3)C2=N)c1,-31.5,–,"2.06 µM [falling, full curve]"
COCCn1c(=S)[nH]c2cc(C(=O)N3CCCC(C)C3)ccc2c1=O (centres undefined),-33.7,"29.1 µM [falling, single point]","18.4 µM [falling, single point]"
O=C(CN1C(=O)COc2ccccc21)N(Cc1cccnc1)Cc1ccccc1F,290,"20.6 µM [rising, partial curve]","18.4 µM [rising, partial curve]"
COc1cc(OC)cc(C(=O)Nc2cccc3cccnc23)c1,13.5,"6.51 µM [rising, single point]",–

SMILES,cell number change [%],AC50 [1],AC50 [2]
O=C(CSc1nnc(-c2ccccc2)n1Cc1ccccc1)N1CCOCC1,18.4,"3.26 µM [falling, full curve]",–
O=C(c1ccc(C(F)(F)F)cc1)C1CCCN(C(=O)CCc2ccncc2)C1 (centres undefined),16.5,–,–
COCCN(C(=O)CCC(=O)Nc1nccs1)C(C(=O)NC(C)(C)C)c1ccc(C)cc1 (centres undefined),–,"5.17 µM [rising, single point]",–
COc1ccc(CC(=O)NCC2CCCN(Cc3cc(OC)cc(OC)c3)C2)cc1 (centres undefined),21.3,–,–
O=C(CSc1nnc(-c2ccco2)n1-c1ccccc1)NCCc1ccccc1,-0.684,"8.2 µM [rising, partial curve, poor fit]",–
CN(CCCC(=O)NCc1ccccc1)S(=O)(=O)c1ccc([N+](=O)[O-])cc1,1.76,–,–
S=C(NCCc1ccccc1)NCc1ccccc1Cl,-36.1,"18.4 µM [falling, partial curve]","0.259 µM [falling, full curve, poor fit]"
CCOc1ccc(/C=C2/Sc3ccc(C(=O)N4CCN(C(=O)c5ccco5)CC4)cc3N(C)C2=O)cc1OC,–,–,"0.82 µM [rising, single point]"
CCc1c(C)sc(NC(=O)/C=C/C(=O)O)c1C(N)=O,-48.2,–,"29.1 µM [falling, single point]"
Cc1cccc(C)c1NC(=O)/C(=C/c1ccco1)c1ccccc1,133,"0.146 µM [rising, full curve, poor fit]","25.9 µM [rising, single point]"
CCOc1ccccc1NC(=O)COC(=O)CC(NC(N)=O)c1ccc(Cl)cc1 (centres undefined),–,"6.51 µM [falling, single point]","6.51 µM [falling, single point]"
CC(C(=O)N(C)c1ccccc1)N1CCN(C(=O)c2ccccc2)CC1 (centres undefined),-19.8,"0.58 µM [rising, single point]",–
O=C(C1CCCCC1)N1CCN(S(=O)(=O)c2ccc(Cl)cc2)CC1,1.7,"6.51 µM [rising, single point]",–
COC(=O)c1c(NC(=O)CSc2nnnn2-c2ccccc2)sc2c1CCC(C)C2 (centres undefined),-22.4,"32.6 µM [falling, single point]",–
CC1/C(=N/O)C(CN(C)C)C2CC1C2(C)C (centres undefined),-12.4,–,–
COc1cc(C)c(NC(=O)C(=S)N2CCCC2)cc1C,3.78,–,–
O=C(O)c1cccc(S(=O)(=O)Nc2cccc(S(=O)(=O)Nc3ccc(Br)cc3)c2)c1,-0.771,–,–
Cn1c(CNc2cccc(Cl)c2)nnc1SCC(=O)OC1CCCCC1,19.8,–,"0.206 µM [falling, full curve]"
COc1ccc(-c2noc(-c3cccc(OC)c3OC)n2)cc1OC,-2.63,"0.00461 µM [falling, full curve, poor fit]",–
CCOC(=O)c1cc(CC)sc1NC(=O)C1CC1,-15.2,"16.4 µM [rising, partial curve]",–

# Some values from above.
# Entry for CC(C(=O)N(C)c1ccccc1)N1CCN(C(=O)c2ccccc2)CC1 (centres undefined) under cell number change [%]: -19.8
# Entry for COC(=O)c1c(NC(=O)CSc2nnnn2-c2ccccc2)sc2c1CCC(C)C2 (centres undefined) under cell number change [%]: -22.4
